# Reference: PubChem BioAssay AID1508600 (Functional Genomics Laboratory (NCATS/FGL), 2020)
# Hit rate of the full screen: of about 53,000 sequences, about 3,700 (7%) were called active.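 Rule for the calls: active = gene knockdowns whose robust z-score for IL-1 alpha signal is at least 2 or at most -2, so actives lie on both sides; inactive = the rest.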 This is one part of the list.
# Assay: Components of the Cytosolic LPS Sensing Pathway: Gene Identification via Genome-wide siRNA Screen;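 note: robust z of the log signal after scaling to non-targeting control siRNA wells of the plate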
# Settings: RAW264.7 macrophages, IL-1a HTRF, actives lie on both sides, screened at 100 nM (by protocol), cells primed 5 h with Pam3CSK4 first
# Summary of the method: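 Supernatant IL-1a by HTRF from RAW264.7 cells primed with Pam3CSK4 (5 hours) and transfected with LipidA (24 hour) after 48h siRNA knockdown at 100 nM; cell viability checked with CellTiter-Glo.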
row,Sequence,z-score
1,GCAGCAGAAUGCUAGAAAATT against Mtrf1,inactive: 0.649
2,GGCUAUGGGAAAUAUAAGATT against Pde1b,inactive: 0.00984
3,UGGUUGUAUUAUUCUGUUGTT against Defb38,inactive: 0.188
4,GCCUUAGAGCUUGUAACUATT against Nbl1,inactive: -1.68
5,GGUGAACAAGAAAGAAGUCTT against Rpl3,inactive: -0.665
6,CCCUCGGUGCCUAAUAAAUTT against Hsd17b10,inactive: -0.0731
7,GCUUAAUUUCAUUUCAAGGTT against B3gnt5,inactive: 0.496
8,CGUAUUCCCAAAUGUGAUGTT against Pcbp3,inactive: -0.276
9,GCUCUUUCAUGUUAUUGAUTT against Dicer1,inactive: -1.22
10,CCUAACUGGGAUCGUAUUATT against Med29,inactive: -1.55
11,GGGCUUAAUCCAGGCCUUATT against Fam118b,inactive: 1.14
12,GGAAUACAAAUUCAAGAUCTT against Vamp5,inactive: -0.82
13,GGACAAAAUCCUGCACAUUTT against Dnajb5,inactive: -0.606
14,GCUUGUAGUUAAGGUGCACTT against Apbb1ip,inactive: 0.653
15,GGAAAUAUAUCCCGGACAGTT against Sirt1,inactive: -0.433
16,GGGAAUUCUCCUUGAGAAUTT against Prdm9,inactive: -0.651
17,GGACAAAUACCACAAGUUGTT against Simc1,active: 2.13
18,CCACCUUUUUCUACAAAGUTT against Slc16a9,inactive: 0.256
19,GCACCCUAGAGGUAAAAGATT against Taf12,active: -2.95
20,GGAGAUGAAAUCUACAAAUTT against Igfbp1,inactive: -0.592
21,AGUGAAGUAUCCAGGGUGUTT against Tex18,inactive: -0.427
22,GGUCAUUUUUGAGGUGCUGTT against Grin2d,inactive: -0.479

row,Sequence,z-score
1,GGAGAUCAUAUGAUUGAGATT against Plscr2,inactive: -0.837
2,GCUGGUAGCCCGACAUAAUTT against Daam2,inactive: 0.77
3,GGUUUGUUAUGCUAUUGUATT against Defa4,inactive: 0.705
4,GGUAAUUUUGGCUCUUGGATT against Eif4a2,inactive: -1.53
5,UGUAUCUGCUUACAGUAGCTT against Olfr523,inactive: 0.15
6,GGAUCCUCAACAAAGAAGATT against H2-DMb1,inactive: 0.972
7,GCUACAAUAAUGGUCAGUCTT against Zfp36l3,inactive: -1.16
8,GGGAGGGAAUAGUCAAAAATT against Timm17b,inactive: 0.909
9,GGAUCUCAUGUUGAUAUAATT against Rpp40,inactive: -0.589
10,GCACUAUACCGAAAAGCGCTT against Ppid,inactive: -0.178
11,GCAGGGUGAGUUGUUAAAUTT against Marchf11,inactive: 0.328
12,GAUUCUUUGUAGGGAGAUATT against Olfr26,inactive: 1.27
13,CGAAUACAUUAAGGAGAACTT against Relb,inactive: -0.316
14,GCACAACCGAUUUUAUCACTT against BC005624,inactive: 0.322
15,GGAUAUCGAUUUAAGAGACTT against Adam2,inactive: 1.25
16,GGGCUUAAGGCUUAAGACATT against Cgnl1,inactive: -0.785
17,GGAAGUAUGGGAUUAUGUGTT against Scpep1,inactive: -0.933
18,GGCCACGGAGCUCUUUGUUTT against Chrac1,inactive: -0.266
19,CCAGUUCUCUCGAAGACUUTT against Hoxb1,inactive: 0.278
20,GGAGUGCAAAAAGAGUUGCTT against Abce1,inactive: -0.781
21,GGUCCACAUUUUCGGCUAGTT against Kctd11,inactive: 0.439
22,GGAGAUGAAAUUGUUUAUCTT against Bpgm,inactive: -0.0841

row,Sequence,z-score
1,GGCAAAGCAAGGUUGCUGATT against Ormdl3,inactive: 1.16
2,GCAGAAAUACUGGCGAAUATT against Gm9725,inactive: 0.607
3,GGAAUUUCAUACAAACUCUTT against Fnip1,inactive: 0.997
4,GCCGAUUUUUGGGAAUAAATT against Ptpn20,inactive: 0.0604
5,GGAAUUCACCUUUAAGAUGTT against Gkn2,inactive: 0.44
6,GGUAGACCAGCUUGCUAAUTT against Plxnb1,inactive: -0.754
7,GGGAUUACUUGUAACAUCATT against Abcc2,inactive: 0.415
8,GCUUUUCGCCCUGUGCUUATT against Smgc,inactive: -1.21
9,GGGUUACAAGCUUAGCUCCTT against Pcdhga5,inactive: -0.0908
10,GGAACUUCAUAAACACUUGTT against Oas3,inactive: -0.545
11,GGUGAACGAUGUCAACUUUTT against Dvl1,inactive: -0.545
12,CCUGUGUCAAUCCUGUGCATT against Ifitm7,inactive: 0.0113
13,GGUAAUCUAUGAGACUCCATT against Gng5,inactive: -1.43
14,GGCCAUCAGCAAAGGAUGCTT against C130074G19Rik,inactive: 1
15,CGUGUUCUUAAUUUGCUUUTT against Rac1,inactive: 1.17
16,GGUGAAAGGAGUCAGUCUATT against Agtrap,inactive: -0.013
17,GGAUUUUGUGAAUAAAUGCTT against Map2k1,inactive: 1.31
18,GCAUAUGGACUUUCUGUCATT against Iws1,inactive: -0.157
19,CGCAGUGACCUCAUUAACGTT against Klf7,inactive: -0.437
20,CCUUCUCCCAUAAGGCCAATT against Zfp1,inactive: 1.14
21,GGAAGACGAAGAGCUGACATT against Psen1,inactive: -0.853
22,CCCAGAUCCUUACUGACUGTT against Tada3,inactive: -0.839

# Laid out differently: entries from further up
row	Sequence	z-score
2	GCAGAAAUACUGGCGAAUATT against Gm9725	inactive: 0.607
3	GGAAUUUCAUACAAACUCUTT against Fnip1	inactive: 0.997

# The listing continues:

row,Sequence,z-score
1,CCCGUGAAAACAGUUGUCATT against Scly,inactive: -0.201
2,GGCGUGUGCAAGAAAAUCGTT against Cacng3,active: 2.53
3,GGCUCCAUCAAGAAAAGUUTT against Usp21,inactive: 0.681
4,GGUGAACACUCUUUUGGAATT against Rab11fip2,inactive: 0.5
5,GGCACAUUCAACAACAUUUTT against Zfp592,inactive: 1.61
6,GGAGAAGAUGAUGUACUGUTT against Bub1b,inactive: -0.204
7,CGCUCAAACCAAAGUUCCUTT against Lin28b,inactive: 0.63
8,CCAGAUGCUCGAUUCAGUGTT against Crim1,inactive: -0.44
9,CCAUACAUUGGAUCAAAGCTT against Rae1,inactive: -0.979
10,GCCAUCACAAGUGAGUUCATT against Olfr951,inactive: -0.524
11,GGUUUUCAAUUUUACACACTT against Dtnbp1,inactive: 1.25
12,GGAGAAAUUCUAUGGUAUUTT against 5031434C07Rik,active: 2.18
13,GGUGUUUCAGAGGCCAAACTT against Stfa1,inactive: 1.25
14,CGUUGAUCCUUUUCAACAUTT against Olfr881,inactive: 0.8
15,GAACAAGGAGAAAUUCUUGTT against Ms4a4c,inactive: -1.37
16,GCUGUGCAAGCAAUAUCUATT against Hnrnpm,inactive: 0.423
17,CCUACAUCAAUAGGAGUUUTT against Ubash3b,inactive: 0.627
18,GGCUCUCAAGAAGAGCAAGTT against Ccdc106,inactive: 1.12
19,GGAAUCCUGCCAUGAUGCATT against Ubqln2,inactive: -0.0777
20,GGGUUUGCACUAGUUUAUUTT against Rap1a,inactive: 0.632
21,GGAAAAGAUUGGUGAAGGUTT against Gjb5,inactive: -1.21
22,GGAAGUUACUGUCGAGUACTT against Olfr115,inactive: 1.61

# Single entries from above:
# z-score with GGACAAAAUCCUGCACAUUTT against Dnajb5 reads inactive: -0.606
# z-score with GGCGUGUGCAAGAAAAUCGTT against Cacng3 reads active: 2.53
# z-score with UGGUUGUAUUAUUCUGUUGTT against Defb38 reads inactive: 0.188
# z-score with GCACCCUAGAGGUAAAAGATT against Taf12 reads active: -2.95
# z-score with GCUUAAUUUCAUUUCAAGGTT against B3gnt5 reads inactive: 0.496

# Additional entries

row,Sequence,z-score
1,GGAAUCUGGGCAAAUCUGGTT against Kcnab2,inactive: 0.467
2,CCUUUGAUCAAUUCUGAGUTT against Glb1,inactive: -0.554
3,GGAGAAAACUAAAUAAGCATT against Vmp1,inactive: -0.841
4,GGGACCUUAGAAGAUUGGGTT against Sart3,inactive: -0.0829
5,GGGUAAACUCAGGCACCUCTT against Ocel1,inactive: -0.217
6,GUAGUAACUCCUACAUUGATT against Olfr133,inactive: 0.165
7,GCAUGAGGCUUUAUUUGACTT against Wwp2,inactive: -0.418
8,GCCAGAUCGCUAAAAUCGUTT against Mtfr1l,inactive: -0.22
9,GGAUCUGGAUUAGAUAGAUTT against Wnt3,inactive: 0.109
10,CCAUACUGAACGCGCUUCUTT against Klhl5,inactive: -1.31
11,CGCAAUUUUGAACAUGUGUTT against Kctd7,inactive: 0.0653
12,GCGAUAUGCAGAGAAGCGGTT against Prpf8,inactive: -1.63
13,GGAGGGAAAUUUGGGACUUTT against Setd6,inactive: 1.14
14,GGCUACUGGGCUUGUUGAATT against Cyp2d22,inactive: 0.919
15,GCUCCCAUUUCGUAGGAAATT against Zfp879,inactive: -1.47
16,GGAAGAGAGAGAGCUUAUUTT against Abca6,inactive: -1.44
17,GGGACUUUGAGAAAAUCUUTT against Scgn,inactive: 1.87
18,GGUGGUUACCAUAGCUGGUTT against Arid2,inactive: 1.67
19,CCUCACUUCAGCAAAACCATT against Tanc1,inactive: -1.8
